Out of some 31,000 sequences screened, about 1,400 (4.5%) were called active.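 How the source made its calls: active means median seed-adjusted z-score above 1 or below -1; inactive means the rest.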 The list shows a part of the results.
Experiment: Novel Modifiers of Survival Motor Neuron (SMN) Protein: Gene Identification via Genome-wide siRNA Screen;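 further: luminescence tracks full-length SMN protein made from the SMN2 reporter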
Settings: HEK293T SMN2-luciferase reporter, siRNA knockdown, 72 h; actives lie on both sides
Outline: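 Genome-wide siRNA screen (10418 genes, 3 siRNAs each, 1 pmol per well) by reverse transfection in HEK293T cells stably carrying an SMN2-luciferase reporter; luminescence after 72 hours, normalized to negative-control siRNA, log10-transformed, MAD-scored.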

Sequence	median seed-adjusted z-score
CAGCCUACCUGAAACAGAATT against KLC3	inactive: -0.156
CUUUCAUCUCUAAAACUGATT against LHX3	inactive: 0.622
GGCUCAUUUUCGCCCUGUATT against CHP2	inactive: 0.364
GACAGACUGUGCAUAUGUATT against GPR15	inactive: 0.101
AGACUGUAUUGCAGGGUGATT against MAFK	active: 1.73
GGGAGUCUCAGUUCACUUUTT against PGRMC1	inactive: 0.124
GGGCUUACAUUUUGCAAGATT against TAAR2	inactive: 0.137
GAAUGGAUAUGAUUAAGCATT against NCOA2	inactive: 0.149
GCAACGAUGUUGCCUGGAATT against GPX1	inactive: -0.0529
GGAAAAAGCUUCACCCAGATT against ZNF32	inactive: 0.034
CCUACUCUGUUGUUCGAAATT against C3	inactive: 0.0281
CAGUGGAUAUCUUGACCUATT against LDHA	inactive: 0.401
GGUGCUGGACUAUAUGGAATT against MOGAT2	inactive: -0.319
CAGUGAAGGUGUACCCUAATT against POMC	inactive: 0.374
CAUCGAGGGUCAUACUAUUTT against POLR2A	active: -3.81
GGUCAAUUAGAAGAGGUGATT against NDUFA5	inactive: -0.0429
CGAAGAAUCUUCCGAAGAATT against EIF2AK1	inactive: -0.546
CUGAGCGACGUGAACCUUATT against TSKU	inactive: -0.548
CACUUAUUCUGGUCCUUCATT against ELOVL3	inactive: 0
GAGUGUGACUGGUAAAGUUTT against SMNDC1	active: -1.54
GGAGUGAUAUAGCAGGUUUTT against ATAD1	inactive: -0.544
GAGGGUUACUGGGACUGUATT against YAF2	inactive: 0
CCCUCUUCCUUAUCCUGCATT against PITPNM1	inactive: -0.203

Sequence	median seed-adjusted z-score
CGAGUACCGCAUAAGCAUUTT against PCDHGA2	inactive: -0.8
GCAUGCUUCGAAACUCUGATT against NDUFV2	inactive: -0.794
GAUCAGAGGUGUCACCCUUTT against SLC6A12	inactive: -0.708
AGCAUUUCCUGGAUGACAATT against CYP2A7	inactive: 0.342
GAAUGUCGCAGAAAGAAGATT against ATF1	inactive: -0.112
GCACGGAUGAUCGAACAGATT against ACP6	inactive: -0.631
GGAGAGACAUCGUCAGCUATT against AGXT	inactive: 0.017
GGAAGACCUUCUAUAAGAATT against ZNF37A	inactive: -0.0585
GCAUGAGUACAGUACCAGATT against NP	inactive: -0.386
GGUGUACUAUUGACUGGAATT against NAP1L4	inactive: -0.244
GUUCCGAAGCUACUAUGAATT against CAMTA2	inactive: 0.152
CCACUAAACUGCGAGAGAATT against CEBPD	inactive: -0.101
CCAGCAUGGUUACUACGAATT against TRAIP	inactive: -0.018
CCCGGAUAGUGAGAAAAGUTT against APOL4	inactive: -0.54
GGUCUGUACUGGGAUUCAUTT against PKD2L2	inactive: -0.0723
GAACUUAGACCAACUUUAATT against COX5A	inactive: -0.348
CGAAAUGACUAUUACCUGATT against CDC20	inactive: 0.191
CCAACAUCCAAGUAAGCUATT against GRIN3A	inactive: 0.241
AGACCAUGGACAACCAUAUTT against GSTM1	inactive: -0.55
GGAUGUUGAUAAAUGGUCUTT against PDE1A	inactive: 0
GAAUACUCACUAUUUCCAATT against MMP7	inactive: 0.0315
GGAUCACCUUUAUAGCUGUTT against MTMR1	inactive: -0.0204
GGACUGCUGUAAGACUCUATT against NAT10	inactive: 0

Some of the entries above in another layout:

| Sequence | median seed-adjusted z-score |
| --- | --- |
| CGAGUACCGCAUAAGCAUUTT against PCDHGA2 | inactive: -0.8 |
| GAUCAGAGGUGUCACCCUUTT against SLC6A12 | inactive: -0.708 |
| AGCAUUUCCUGGAUGACAATT against CYP2A7 | inactive: 0.342 |
| GAAUGUCGCAGAAAGAAGATT against ATF1 | inactive: -0.112 |
| GCACGGAUGAUCGAACAGATT against ACP6 | inactive: -0.631 |
| GGAAGACCUUCUAUAAGAATT against ZNF37A | inactive: -0.0585 |
| GCAUGAGUACAGUACCAGATT against NP | inactive: -0.386 |
| GGUGUACUAUUGACUGGAATT against NAP1L4 | inactive: -0.244 |
| GUUCCGAAGCUACUAUGAATT against CAMTA2 | inactive: 0.152 |
| CCACUAAACUGCGAGAGAATT against CEBPD | inactive: -0.101 |
| CCCGGAUAGUGAGAAAAGUTT against APOL4 | inactive: -0.54 |
| GAACUUAGACCAACUUUAATT against COX5A | inactive: -0.348 |
| CGAAAUGACUAUUACCUGATT against CDC20 | inactive: 0.191 |
| CCAACAUCCAAGUAAGCUATT against GRIN3A | inactive: 0.241 |
| GGAUGUUGAUAAAUGGUCUTT against PDE1A | inactive: 0 |
| GAAUACUCACUAUUUCCAATT against MMP7 | inactive: 0.0315 |
| GGAUCACCUUUAUAGCUGUTT against MTMR1 | inactive: -0.0204 |
| GGACUGCUGUAAGACUCUATT against NAT10 | inactive: 0 |

Continued.

Sequence	median seed-adjusted z-score
GCAGGUUCCAGAAACGAAUTT against PPP1R15B	inactive: -0.407
GGGUCAUCCGAGAUUCUCATT against DLG5	inactive: 0.467
CCAUUUGACUUUAUGGAGATT against RRM2	active: -3.84
CACUGAUUUGAAACCCUAUTT against ZNF404	inactive: 0.574
CGUCCAUUCCAGCUGGUAATT against RCADH5	inactive: -0.158
GAAGCAAUGCCUAUACUAUTT against GPR19	inactive: 0.157
CAUUCAACCUCAUUCUGAUTT against CYP11A1	inactive: 0.0202
CGCUGAUGGUCAAACGCAATT against HSPA9	inactive: 0.622
CUUUGACUGUCAUCACUGATT against SLC24A2	inactive: 0.136
AUAUCAAGGCUGUGCGGAATT against DUS1L	inactive: 0.0698
AGACGGUGGUGUGCAGGAATT against RHOT2	inactive: 0.263
CCCUCAAUCCAGCACAAAATT against LILRA4	inactive: 0.109
CCUGAUGUAUUGGACAUUUTT against HPSE	inactive: 0.153
AGGUCUUUCCCAACGAGGATT against UBE2S	inactive: 0.348
CGUGAAAUGUUUGGAUAUATT against NDUFC2	inactive: -0.0481
CAAGAACUGUGCGAUCUUATT against ZAN	inactive: 0.736
UGUACGUCCUGGGAUGAUATT against TNFRSF10C	inactive: 0
CAAGCUCUGAUAUACCGAATT against HIVEP1	inactive: 0.532
GGCAUUACCGUGUAUAACATT against CHST10	inactive: 0.115
GUUUGACCUUAGCUAGAAATT against SHOC2	inactive: -0.403
CCCUCGAUGUGACGCAGAATT against GP9	inactive: -0.88
CUCUUAGAAGCAAAACGUATT against SYTL5	inactive: 0.192
GCACCAUGGGCUAAUCAGATT against RPE	inactive: 0.616

Reference: PubChem BioAssay AID1347426 (Functional Genomics Laboratory (NCATS/FGL), 2020)
